Data as given in PubChem BioAssay AID1259308 (NCATS, 2017).
Aim: 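Knock-downs that increase output of a recombinant reporter protein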 (primary screen). Cells: human HEK293 embryonic kidney cells stably expressing firefly luciferase (HEK-CMV-Luc2-Hygro). Knock-down reagent: single siRNA against human genes, 0.8 pmol siRNA per well. Duration: 72 h. Read-out: 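Reporter luminescence and viable-cell signal on separate replicate plates, given as percent of non-targeting control and median/MAD z-scores, plus per-cell luciferase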. Reading the numbers: total luciferase, z-score and total luciferase, % of control: higher = more reporter protein produced; luciferase per cell, z-score: higher = more reporter output per viable cell; viable cells, % of control: higher = more viable cells. Active means: 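An siRNA counts as active if its total luciferase robust z-score exceeds 3; genes with two or more such siRNAs out of three were retested with fresh siRNAs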. Meaning of the calls: active = raised luciferase; inactive = no rise.
In all, the deposit lists about 59,000 reagents; shown is a random part of them. About 1,510 of all reagents (2.6%) were called active. 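Calls use total luciferase alone and ignore viability, so some active siRNAs may act by altering cell number.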 Unmarked entries are inactive. The numbers tell different reagents against one gene apart. Reagent sequences are not shown.

| Target gene | reagent no. | total luciferase, z-score | total luciferase, % of control | luciferase per cell, z-score | viable cells, % of control |
| --- | --- | --- | --- | --- | --- |
| NAA38 (GeneID 84316) | 1 | 2.42 | 130 | 2.57 | 73.9 |
| NAA38 (GeneID 84316) | 2 | -0.221 | 77.5 | 0.715 | 71.7 |
| NAA38 (GeneID 84316) | 3 | -1.09 | 60.3 | -0.987 | 87.3 |
| THRA (GeneID 7067) | 1 | 1.71 | 116 | 1.1 | 96.9 |
| THRA (GeneID 7067) | 2 | 1.12 | 104 | 0.528 | 101 |
| THRA (GeneID 7067) | 3 | 1.33 | 108 | 2.07 | 70.1 |
| PRICKLE3 (GeneID 4007) | 1 | -0.27 | 76.5 | -0.418 | 95.4 |
| PRICKLE3 (GeneID 4007) | 2 | -0.946 | 63.1 | -0.593 | 82.4 |
| PRICKLE3 (GeneID 4007) | 3 | 0.15 | 84.9 | -0.0125 | 95.2 |
| GRIN2D (GeneID 2906) | 1 | -0.681 | 68.3 | -1.38 | 110 |
| GRIN2D (GeneID 2906) | 2 | 1.09 | 104 | 0.591 | 99 |
| GRIN2D (GeneID 2906) | 3 | 0.102 | 83.9 | -0.681 | 112 |
| CPNE9 (GeneID 151835) | 1 | -0.0586 | 80.7 | 0.0953 | 88 |
| CPNE9 (GeneID 151835) | 2 | -0.754 | 66.9 | -0.303 | 81 |
| CPNE9 (GeneID 151835) | 3 | -0.653 | 68.9 | -0.867 | 96.8 |
| SRRM1 (GeneID 10250) | 1 | 0.867 | 99.1 | 1.77 | 69.5 |
| SRRM1 (GeneID 10250) | 2 | -0.0987 | 79.9 | 0.557 | 77.1 |
| SRRM1 (GeneID 10250) | 3 | -2.12 | 39.8 | -2.83 | 93.6 |

Continued (3 carried over from the part before).
| Target gene | reagent no. | total luciferase, z-score | total luciferase, % of control | luciferase per cell, z-score | viable cells, % of control |
| --- | --- | --- | --- | --- | --- |
| SRRM1 (GeneID 10250) | 1 | 0.867 | 99.1 | 1.77 | 69.5 |
| SRRM1 (GeneID 10250) | 2 | -0.0987 | 79.9 | 0.557 | 77.1 |
| SRRM1 (GeneID 10250) | 3 | -2.12 | 39.8 | -2.83 | 93.6 |
| DENND2B (GeneID 6764) | 1 | -0.121 | 79.5 | 0.196 | 84.3 |
| DENND2B (GeneID 6764) | 2 | -0.71 | 67.8 | 0.177 | 72.3 |
| DENND2B (GeneID 6764) | 3 | -0.212 | 77.7 | 0.292 | 80.3 |
| C2CD4A (GeneID 145741) | 1 | -0.742 | 67.1 | -0.272 | 80.6 |
| C2CD4A (GeneID 145741) | 2 | -0.0209 | 81.5 | -0.324 | 99.1 |
| C2CD4A (GeneID 145741) | 3 | -0.941 | 63.2 | -0.911 | 89.7 |
| TNK1 (GeneID 8711) | 1 | 0.765 | 97.1 | 1.38 | 75.4 |
| TNK1 (GeneID 8711) | 2 | 0.625 | 94.3 | 0.735 | 86.8 |
| TNK1 (GeneID 8711) | 3 | 3.89 (active) | 159 | 3.55 | 69.9 |
| ANKRD34C-AS1 (GeneID 729911) | 1 | -0.603 | 69.9 | 0.0632 | 76.8 |
| ANKRD34C-AS1 (GeneID 729911) | 2 | 1.28 | 107 | 1.69 | 76.8 |
| ANKRD34C-AS1 (GeneID 729911) | 3 | -0.119 | 79.5 | 0.115 | 86.2 |
| FAM241A (GeneID 132720) | 1 | 0.113 | 84.1 | 0.0844 | 91.9 |
| FAM241A (GeneID 132720) | 2 | -1.09 | 60.2 | -0.694 | 80.8 |
| FAM241A (GeneID 132720) | 3 | -0.242 | 77.1 | -0.153 | 89.7 |
| MORF4L1 (GeneID 10933) | 1 | 0.547 | 92.8 | 0.113 | 101 |
| MORF4L1 (GeneID 10933) | 2 | -0.883 | 64.3 | -0.924 | 91.7 |
| MORF4L1 (GeneID 10933) | 3 | -0.764 | 66.7 | -1.16 | 101 |
| DHX35 (GeneID 60625) | 1 | 0.401 | 89.9 | 0.00489 | 100 |
| DHX35 (GeneID 60625) | 2 | 0.701 | 95.8 | 0.295 | 99.1 |
| DHX35 (GeneID 60625) | 3 | 0.305 | 88 | 0.00599 | 98.1 |
